Source: PubChem BioAssay AID328 (DTP/NCI, 2004)
The list is a part of this screen's results and no random one: its compounds were picked by chemical class. Not every dose and run of a compound is shown. T/C: endpoint of the treated group in % of that of the vehicle group. For survival time, this PubChem deposit counts one and a half times the control or more as active, and values a quarter to a half above the control carry no call in these data; other NCI protocols may use other cut-offs. Some entries show no survivor count and are marked so; the dose need not have been tolerated. Schedules are NCI's codes, read here as Q, the interval in days (D) or hours (H), X, the number of doses. Some doses were run more than once; the values are given in rising order.

Test system: BDF1 mice, P388 leukemia ip, median survival T/C
Assay: NCI In Vivo Anticancer Drug Screen. Data for tumor model P388 Leukemia (intraperitoneal) in B6D2F1 (BDF1) mice
Conditions: T/C endpoint: median survival time, higher T/C = longer survival
Outline: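 Steps: implant the tumour, treat one group with compound and another with vehicle, record survival, then divide treated by control.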

## O=C(O)CCc1ccc(CN(CCCl)CCCl)cc1
dose: 1.25 mg/kg/injection, schedule: Q04DX003 (ip), vehicle: saline with Tween-80
  T/C: 145 % of control [survivor count not shown]
dose: 1.65 mg/kg/injection, schedule: Q04DX003 (ip), vehicle: saline
  T/C: 105 % of control [survivor count not shown]
dose: 2.5 mg/kg/injection, schedule: Q04DX003 (ip), vehicle: saline with Tween-80
  T/C: 163 % of control [survivor count not shown]
dose: 2.5 mg/kg/injection, schedule: Q04DX003 (ip), vehicle: saline
  T/C: 135 % of control [survivor count not shown]
dose: 3.75 mg/kg/injection, schedule: Q04DX003 (ip), vehicle: saline
  T/C: 130 % of control [survivor count not shown]
dose: 5.0 mg/kg/injection, schedule: Q04DX003 (ip), vehicle: saline with Tween-80
  T/C: 90 % of control [survivor count not shown]

## S=P(Cl)(Cl)Cl
dose: 12.5 mg/kg/injection, schedule: Q04DX003 (ip), vehicle: saline
  T/C: 109 % of control [survivor count not shown]
dose: 25.0 mg/kg/injection, schedule: Q04DX003 (ip), vehicle: saline
  T/C: 109 % of control [survivor count not shown]
dose: 50.0 mg/kg/injection, schedule: Q04DX003 (ip), vehicle: saline
  T/C: 109 % of control [survivor count not shown]

## Oc1ccc(Cl)cc1CN(CCCl)CCCl
dose: 12.5 mg/kg/injection, schedule: Q04DX003 (ip), vehicle: saline with Tween-80
  T/C: 153 % of control [survivor count not shown]
dose: 16.5 mg/kg/injection, schedule: Q04DX003 (ip), vehicle: saline with Tween-80
  T/C: 150 % of control [survivor count not shown]
dose: 25.0 mg/kg/injection, schedule: Q04DX003 (ip), vehicle: saline with Tween-80
  T/C: 153 [survivor count not shown] and 183 % of control [survivor count not shown]
dose: 37.5 mg/kg/injection, schedule: Q04DX003 (ip), vehicle: saline with Tween-80
  T/C: 191 % of control [survivor count not shown]
dose: 50.0 mg/kg/injection, schedule: Q04DX003 (ip), vehicle: saline with Tween-80
  T/C: 107 % of control [survivor count not shown]

## OCC#CCN(CCCl)CCCl
dose: 0.5 mg/kg/injection, schedule: Q01DX009 (ip), vehicle: saline
  T/C: 154 % of control [survivor count not shown]
dose: 0.9 mg/kg/injection, schedule: Q04DX003 (ip), vehicle: saline
  T/C: 150 % of control [survivor count not shown]
dose: 1.5 mg/kg/injection, schedule: Q04DX003 (ip), vehicle: saline
  T/C: 158 % of control [survivor count not shown]
dose: 2.0 mg/kg/injection, schedule: Q01DX009 (ip), vehicle: saline
  T/C: 272 % of control [survivor count not shown]
dose: 2.25 mg/kg/injection, schedule: Q04DX003 (ip), vehicle: saline
  T/C: 204 % of control [survivor count not shown]

## COc1cccc(N(CCCl)CCCl)c1OC
dose: 33.0 mg/kg/injection, schedule: Q04DX002 (ip), vehicle: saline with Tween-80
  T/C: 129 % of control [survivor count not shown]
dose: 50.0 mg/kg/injection, schedule: Q04DX002 (ip), vehicle: saline with Tween-80
  T/C: 162 % of control [survivor count not shown]
dose: 75.0 mg/kg/injection, schedule: Q04DX002 (ip), vehicle: saline with Tween-80
  T/C: 175 % of control [survivor count not shown]

## Cn1c(=O)[nH]cc(N(CCCl)CCCl)c1=O
dose: 0.15 mg/kg/injection, schedule: Q01DX009 (ip), vehicle: saline
  T/C: 87 % of control [survivor count not shown]
dose: 0.31 mg/kg/injection, schedule: Q01DX009 (ip), vehicle: saline
  T/C: 112 [survivor count not shown] and 145 % of control [survivor count not shown]
dose: 0.4 mg/kg/injection, schedule: Q01DX009 (ip), vehicle: saline
  T/C: 131 % of control [survivor count not shown]
dose: 0.62 mg/kg/injection, schedule: Q01DX009 (ip), vehicle: saline
  T/C: 100 [survivor count not shown], 129 [survivor count not shown], 154 % of control [survivor count not shown]
dose: 0.93 mg/kg/injection, schedule: Q01DX009 (ip), vehicle: saline
  T/C: 177 % of control [survivor count not shown]
dose: 5.0 mg/kg/injection, schedule: Q04DX003 (ip), vehicle: saline
  T/C: 86 % of control [survivor count not shown]

## COc1cc(CN(CCCl)CCBr)cc(OC)c1
dose: 0.45 mg/kg/injection, schedule: Q04DX003 (ip), vehicle: saline
  T/C: 116 % of control [survivor count not shown]
dose: 0.7 mg/kg/injection, schedule: Q04DX003 (ip), vehicle: saline
  T/C: 133 % of control [survivor count not shown]
dose: 0.75 mg/kg/injection, schedule: Q01DX009 (ip), vehicle: saline with Tween-80
  T/C: 162 % of control [survivor count not shown]
dose: 1.1 mg/kg/injection, schedule: Q04DX003 (ip), vehicle: saline with Tween-80
  T/C: 141 % of control [survivor count not shown]
dose: 1.1 mg/kg/injection, schedule: Q04DX003 (ip), vehicle: saline
  T/C: 141 % of control [survivor count not shown]
dose: 1.5 mg/kg/injection, schedule: Q01DX009 (ip), vehicle: saline with Tween-80
  T/C: 162 % of control [survivor count not shown]
dose: 1.7 mg/kg/injection, schedule: Q04DX003 (ip), vehicle: saline with Tween-80
  T/C: 150 % of control [survivor count not shown]
dose: 2.6 mg/kg/injection, schedule: Q01DX009 (ip), vehicle: Klucel (hydroxypropylcellulose) (HPC)
  T/C: 137 % of control [survivor count not shown]
dose: 2.6 mg/kg/injection, schedule: Q04DX003 (ip), vehicle: saline with Tween-80
  T/C: 110 [survivor count not shown], 154 [survivor count not shown], 156 % of control [survivor count not shown]
dose: 3.0 mg/kg/injection, schedule: Q01DX009 (ip), vehicle: saline with Tween-80
  T/C: 169 % of control [survivor count not shown]
dose: 4.0 mg/kg/injection, schedule: Q01DX009 (ip), vehicle: Klucel (hydroxypropylcellulose) (HPC)
  T/C: 137 % of control [survivor count not shown]
dose: 4.0 mg/kg/injection, schedule: Q04DX003 (ip), vehicle: saline with Tween-80
  T/C: 137 [survivor count not shown] and 152 % of control [survivor count not shown]
dose: 6.0 mg/kg/injection, schedule: Q01DX009 (ip), vehicle: Klucel (hydroxypropylcellulose) (HPC)
  T/C: 161 % of control [survivor count not shown]
dose: 6.0 mg/kg/injection, schedule: Q04DX003 (ip), vehicle: saline with Tween-80
  T/C: 135 [survivor count not shown], 165 [survivor count not shown], 191 % of control [survivor count not shown]
dose: 9.0 mg/kg/injection, schedule: Q01DX009 (ip), vehicle: Klucel (hydroxypropylcellulose) (HPC)
  T/C: 163 % of control [survivor count not shown]
dose: 9.0 mg/kg/injection, schedule: Q04DX003 (ip), vehicle: saline with Tween-80
  T/C: 155 [survivor count not shown] and 221 % of control [survivor count not shown]
dose: 12.0 mg/kg/injection, schedule: Q04DX003 (ip), vehicle: saline with Tween-80
  T/C: 91 % of control [survivor count not shown]
dose: 14.0 mg/kg/injection, schedule: Q01DX009 (ip), vehicle: Klucel (hydroxypropylcellulose) (HPC)
  T/C: 189 % of control [survivor count not shown]

## CC(C(=O)O)N(CCCl)CCCl (stereo unspecified)
dose: 0.5 mg/kg/injection, schedule: Q01DX010 (ip), vehicle: saline
  T/C: 180 [survivor count not shown] and 215 % of control [survivor count not shown]
dose: 1.0 mg/kg/injection, schedule: Q01DX010 (ip), vehicle: saline
  T/C: 195 [survivor count not shown] and 215 % of control [survivor count not shown]
dose: 2.0 mg/kg/injection, schedule: Q01DX010 (ip), vehicle: saline
  T/C: 230 [survivor count not shown] and 235 % of control [survivor count not shown]
dose: 4.0 mg/kg/injection, schedule: Q01DX010 (ip), vehicle: saline
  T/C: 230 [survivor count not shown] and 255 % of control [survivor count not shown]

## O=S=NN(CCCl)CCCl
dose: 8.5 mg/kg/injection, schedule: Q04DX003 (ip), vehicle: saline
  T/C: 100 % of control [survivor count not shown]
dose: 10.0 mg/kg/injection, schedule: Q04DX003 (ip), vehicle: saline
  T/C: 113 % of control [survivor count not shown]
dose: 13.0 mg/kg/injection, schedule: Q04DX003 (ip), vehicle: saline
  T/C: 136 % of control [survivor count not shown]
dose: 20.0 mg/kg/injection, schedule: Q04DX003 (ip), vehicle: saline
  T/C: 204 [survivor count not shown] and 218 % of control [survivor count not shown]
dose: 30.0 mg/kg/injection, schedule: Q04DX003 (ip), vehicle: saline
  T/C: 159 % of control [survivor count not shown]
dose: 40.0 mg/kg/injection, schedule: Q04DX003 (ip), vehicle: saline
  T/C: 95 % of control [survivor count not shown]
